Experimental data as given in the supplement of paper PMC10849652.
Some of the results follow.

Amino acid sequences for entries named in this document (tags omitted). A change or cut given only in a name is not applied to a line headed by its entry.
UniProt Q14558: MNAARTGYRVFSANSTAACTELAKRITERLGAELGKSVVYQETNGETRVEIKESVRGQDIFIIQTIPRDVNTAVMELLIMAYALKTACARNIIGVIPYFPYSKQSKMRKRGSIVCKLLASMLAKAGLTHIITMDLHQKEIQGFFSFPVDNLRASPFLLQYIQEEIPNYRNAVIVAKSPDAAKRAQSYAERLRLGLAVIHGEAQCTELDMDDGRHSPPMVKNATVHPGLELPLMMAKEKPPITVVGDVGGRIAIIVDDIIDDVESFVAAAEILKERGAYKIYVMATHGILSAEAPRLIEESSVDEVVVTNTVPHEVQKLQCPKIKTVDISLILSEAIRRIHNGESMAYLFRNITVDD
UniProt P20962: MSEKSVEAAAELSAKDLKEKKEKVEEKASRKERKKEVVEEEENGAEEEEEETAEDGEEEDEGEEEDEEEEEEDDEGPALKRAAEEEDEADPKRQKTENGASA
UniProt P43686, whole entry, looked up: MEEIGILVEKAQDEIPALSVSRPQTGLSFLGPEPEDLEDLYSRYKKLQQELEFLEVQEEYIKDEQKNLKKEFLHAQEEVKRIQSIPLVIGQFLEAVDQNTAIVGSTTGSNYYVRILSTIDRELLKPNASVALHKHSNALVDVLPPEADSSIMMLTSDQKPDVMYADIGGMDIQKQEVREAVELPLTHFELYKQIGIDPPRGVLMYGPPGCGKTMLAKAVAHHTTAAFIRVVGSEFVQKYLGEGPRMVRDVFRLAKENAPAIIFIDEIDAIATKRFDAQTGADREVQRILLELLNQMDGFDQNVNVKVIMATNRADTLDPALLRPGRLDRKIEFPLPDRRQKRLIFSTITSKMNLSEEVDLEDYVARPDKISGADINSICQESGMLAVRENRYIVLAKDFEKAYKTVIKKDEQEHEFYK
UniProt Q6GMV3: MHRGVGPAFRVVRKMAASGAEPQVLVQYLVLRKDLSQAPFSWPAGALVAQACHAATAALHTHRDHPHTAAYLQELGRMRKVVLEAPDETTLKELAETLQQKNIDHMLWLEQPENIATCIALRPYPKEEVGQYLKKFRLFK
UniProt O95758: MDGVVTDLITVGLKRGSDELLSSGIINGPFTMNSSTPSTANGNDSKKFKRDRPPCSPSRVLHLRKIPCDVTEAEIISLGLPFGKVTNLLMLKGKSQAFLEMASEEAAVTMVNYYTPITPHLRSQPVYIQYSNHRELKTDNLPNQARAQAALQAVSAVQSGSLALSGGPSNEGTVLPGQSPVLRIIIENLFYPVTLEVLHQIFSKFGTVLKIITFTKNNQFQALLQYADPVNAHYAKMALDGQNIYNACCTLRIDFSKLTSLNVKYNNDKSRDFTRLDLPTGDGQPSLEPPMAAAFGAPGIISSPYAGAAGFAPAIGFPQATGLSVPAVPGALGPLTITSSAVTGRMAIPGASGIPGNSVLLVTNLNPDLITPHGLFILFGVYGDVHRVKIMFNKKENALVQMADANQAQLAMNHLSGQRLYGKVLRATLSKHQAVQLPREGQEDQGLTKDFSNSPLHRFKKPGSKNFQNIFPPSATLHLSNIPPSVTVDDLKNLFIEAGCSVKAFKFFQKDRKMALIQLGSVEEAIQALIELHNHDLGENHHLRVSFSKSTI
UniProt Q8N0Z8: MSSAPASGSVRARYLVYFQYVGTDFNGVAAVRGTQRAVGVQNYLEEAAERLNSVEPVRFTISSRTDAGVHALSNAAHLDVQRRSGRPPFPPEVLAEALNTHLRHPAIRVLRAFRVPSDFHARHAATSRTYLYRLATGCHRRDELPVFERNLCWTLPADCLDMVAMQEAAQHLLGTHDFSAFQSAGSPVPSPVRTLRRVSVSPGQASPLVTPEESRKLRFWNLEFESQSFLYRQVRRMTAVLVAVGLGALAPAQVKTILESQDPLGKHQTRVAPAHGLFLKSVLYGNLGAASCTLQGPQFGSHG
UniProt P28072: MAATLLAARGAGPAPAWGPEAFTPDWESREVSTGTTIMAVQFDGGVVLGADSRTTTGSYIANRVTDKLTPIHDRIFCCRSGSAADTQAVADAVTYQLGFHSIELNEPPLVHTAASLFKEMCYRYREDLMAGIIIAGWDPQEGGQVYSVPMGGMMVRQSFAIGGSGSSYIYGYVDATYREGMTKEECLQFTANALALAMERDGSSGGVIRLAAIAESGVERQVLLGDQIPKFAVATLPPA
UniProt Q13308: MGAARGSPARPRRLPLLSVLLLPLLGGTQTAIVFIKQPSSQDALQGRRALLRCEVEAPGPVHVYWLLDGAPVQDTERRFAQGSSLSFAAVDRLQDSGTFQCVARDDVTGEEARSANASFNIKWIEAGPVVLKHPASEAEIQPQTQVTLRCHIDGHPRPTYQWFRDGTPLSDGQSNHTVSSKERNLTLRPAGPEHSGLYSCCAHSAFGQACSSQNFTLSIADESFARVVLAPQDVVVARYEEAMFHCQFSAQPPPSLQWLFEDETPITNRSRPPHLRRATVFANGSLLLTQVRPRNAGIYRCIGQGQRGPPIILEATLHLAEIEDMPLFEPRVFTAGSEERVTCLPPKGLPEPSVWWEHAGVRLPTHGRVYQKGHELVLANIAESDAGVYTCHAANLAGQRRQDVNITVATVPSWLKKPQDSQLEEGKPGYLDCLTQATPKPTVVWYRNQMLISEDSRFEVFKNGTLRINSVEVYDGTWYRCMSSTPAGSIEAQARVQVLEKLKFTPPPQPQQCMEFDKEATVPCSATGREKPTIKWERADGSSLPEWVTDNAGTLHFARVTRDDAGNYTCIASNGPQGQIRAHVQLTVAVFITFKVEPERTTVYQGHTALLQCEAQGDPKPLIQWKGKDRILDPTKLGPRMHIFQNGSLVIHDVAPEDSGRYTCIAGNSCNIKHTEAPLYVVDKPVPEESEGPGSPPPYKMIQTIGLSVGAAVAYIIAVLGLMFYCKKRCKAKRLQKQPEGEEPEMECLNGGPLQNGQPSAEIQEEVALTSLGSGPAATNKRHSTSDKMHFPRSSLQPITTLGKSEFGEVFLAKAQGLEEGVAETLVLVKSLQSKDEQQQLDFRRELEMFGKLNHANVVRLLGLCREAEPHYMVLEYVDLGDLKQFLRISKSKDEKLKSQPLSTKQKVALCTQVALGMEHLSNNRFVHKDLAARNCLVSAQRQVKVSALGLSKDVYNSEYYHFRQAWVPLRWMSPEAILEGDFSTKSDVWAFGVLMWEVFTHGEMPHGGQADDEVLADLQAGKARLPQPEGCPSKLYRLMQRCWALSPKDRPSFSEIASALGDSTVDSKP
UniProt Q969U7: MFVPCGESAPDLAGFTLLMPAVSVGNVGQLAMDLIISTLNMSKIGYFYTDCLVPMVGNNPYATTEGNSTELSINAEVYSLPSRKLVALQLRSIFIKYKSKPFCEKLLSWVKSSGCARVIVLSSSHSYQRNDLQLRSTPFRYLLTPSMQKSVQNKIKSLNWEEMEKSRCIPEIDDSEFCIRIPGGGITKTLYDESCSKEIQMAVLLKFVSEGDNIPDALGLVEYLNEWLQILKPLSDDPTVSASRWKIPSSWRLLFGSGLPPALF
UniProt P62191: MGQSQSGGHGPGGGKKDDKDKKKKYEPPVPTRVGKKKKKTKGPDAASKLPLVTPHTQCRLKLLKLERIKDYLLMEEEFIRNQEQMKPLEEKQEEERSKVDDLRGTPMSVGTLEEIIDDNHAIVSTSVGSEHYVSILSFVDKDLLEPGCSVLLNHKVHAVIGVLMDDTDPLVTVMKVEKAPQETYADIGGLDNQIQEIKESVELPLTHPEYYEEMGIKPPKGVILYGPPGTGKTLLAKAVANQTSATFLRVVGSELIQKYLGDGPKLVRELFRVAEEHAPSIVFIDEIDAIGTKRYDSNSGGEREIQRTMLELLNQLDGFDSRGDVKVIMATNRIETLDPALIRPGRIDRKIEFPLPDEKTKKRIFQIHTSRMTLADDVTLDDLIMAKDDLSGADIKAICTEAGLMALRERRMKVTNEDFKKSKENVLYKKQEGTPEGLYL
UniProt P62195, whole entry, looked up: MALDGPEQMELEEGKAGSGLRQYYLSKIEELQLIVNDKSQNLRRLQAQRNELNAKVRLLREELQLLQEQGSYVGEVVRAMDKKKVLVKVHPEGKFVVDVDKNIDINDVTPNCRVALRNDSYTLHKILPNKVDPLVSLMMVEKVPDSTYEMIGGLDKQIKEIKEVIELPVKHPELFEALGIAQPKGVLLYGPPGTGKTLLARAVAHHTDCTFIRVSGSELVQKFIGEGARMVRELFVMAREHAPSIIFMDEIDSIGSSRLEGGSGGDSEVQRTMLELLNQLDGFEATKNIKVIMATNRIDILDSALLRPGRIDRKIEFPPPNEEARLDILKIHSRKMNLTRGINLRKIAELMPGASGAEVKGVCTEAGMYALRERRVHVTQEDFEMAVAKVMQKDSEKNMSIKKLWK
UniProt Q05397, whole entry, looked up: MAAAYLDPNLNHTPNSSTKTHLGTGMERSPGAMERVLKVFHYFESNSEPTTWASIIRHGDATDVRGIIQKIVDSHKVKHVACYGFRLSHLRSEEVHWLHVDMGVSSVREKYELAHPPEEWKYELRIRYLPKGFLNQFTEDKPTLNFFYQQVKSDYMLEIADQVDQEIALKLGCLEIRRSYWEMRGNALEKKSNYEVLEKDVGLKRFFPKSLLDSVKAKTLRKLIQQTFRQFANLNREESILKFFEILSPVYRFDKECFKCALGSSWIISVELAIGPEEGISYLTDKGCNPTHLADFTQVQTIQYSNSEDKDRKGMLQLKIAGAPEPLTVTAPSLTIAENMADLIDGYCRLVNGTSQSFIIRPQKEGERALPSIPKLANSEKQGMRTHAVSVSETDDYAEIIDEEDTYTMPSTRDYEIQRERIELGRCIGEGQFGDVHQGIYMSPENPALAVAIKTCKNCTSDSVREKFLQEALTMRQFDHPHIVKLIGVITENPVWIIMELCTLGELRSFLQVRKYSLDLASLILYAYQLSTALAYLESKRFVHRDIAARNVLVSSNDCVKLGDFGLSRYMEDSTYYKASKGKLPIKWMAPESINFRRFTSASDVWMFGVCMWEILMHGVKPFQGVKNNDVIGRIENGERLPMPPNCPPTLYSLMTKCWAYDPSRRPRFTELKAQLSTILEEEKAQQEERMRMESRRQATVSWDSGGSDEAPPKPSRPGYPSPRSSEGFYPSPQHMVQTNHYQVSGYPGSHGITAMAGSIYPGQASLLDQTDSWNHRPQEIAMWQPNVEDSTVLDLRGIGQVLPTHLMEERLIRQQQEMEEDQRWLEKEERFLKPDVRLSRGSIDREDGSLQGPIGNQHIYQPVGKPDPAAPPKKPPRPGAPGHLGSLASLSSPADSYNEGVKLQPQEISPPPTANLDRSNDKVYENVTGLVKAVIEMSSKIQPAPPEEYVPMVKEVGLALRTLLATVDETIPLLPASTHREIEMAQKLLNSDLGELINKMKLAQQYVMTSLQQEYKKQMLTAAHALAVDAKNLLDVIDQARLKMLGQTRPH
UniProt Q14289, whole entry, looked up: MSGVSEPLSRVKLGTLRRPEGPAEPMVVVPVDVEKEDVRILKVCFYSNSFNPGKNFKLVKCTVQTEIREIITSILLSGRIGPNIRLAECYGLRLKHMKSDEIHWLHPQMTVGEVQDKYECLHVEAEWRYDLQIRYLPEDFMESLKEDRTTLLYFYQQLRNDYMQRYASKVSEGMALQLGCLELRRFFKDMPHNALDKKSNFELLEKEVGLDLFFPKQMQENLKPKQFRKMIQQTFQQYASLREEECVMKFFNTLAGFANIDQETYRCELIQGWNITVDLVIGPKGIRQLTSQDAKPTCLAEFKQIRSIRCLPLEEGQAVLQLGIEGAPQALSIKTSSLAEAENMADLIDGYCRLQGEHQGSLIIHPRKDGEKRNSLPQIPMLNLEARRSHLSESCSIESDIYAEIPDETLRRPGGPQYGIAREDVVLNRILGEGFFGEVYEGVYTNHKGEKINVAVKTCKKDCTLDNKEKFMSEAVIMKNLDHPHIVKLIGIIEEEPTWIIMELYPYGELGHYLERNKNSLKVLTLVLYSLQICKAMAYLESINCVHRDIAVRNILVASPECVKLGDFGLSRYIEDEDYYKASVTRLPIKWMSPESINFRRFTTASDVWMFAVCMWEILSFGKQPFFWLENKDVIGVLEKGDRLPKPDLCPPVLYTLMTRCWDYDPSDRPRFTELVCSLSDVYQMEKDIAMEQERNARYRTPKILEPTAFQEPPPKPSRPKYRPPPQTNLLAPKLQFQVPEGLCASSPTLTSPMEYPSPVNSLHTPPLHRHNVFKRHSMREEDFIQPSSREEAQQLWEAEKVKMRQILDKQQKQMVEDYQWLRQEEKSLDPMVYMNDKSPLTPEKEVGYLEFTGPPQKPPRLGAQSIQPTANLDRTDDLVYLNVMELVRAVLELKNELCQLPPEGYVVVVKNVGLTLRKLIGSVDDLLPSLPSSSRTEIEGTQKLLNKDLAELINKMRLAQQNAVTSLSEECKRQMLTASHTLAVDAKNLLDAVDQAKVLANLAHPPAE
UniProt O14818: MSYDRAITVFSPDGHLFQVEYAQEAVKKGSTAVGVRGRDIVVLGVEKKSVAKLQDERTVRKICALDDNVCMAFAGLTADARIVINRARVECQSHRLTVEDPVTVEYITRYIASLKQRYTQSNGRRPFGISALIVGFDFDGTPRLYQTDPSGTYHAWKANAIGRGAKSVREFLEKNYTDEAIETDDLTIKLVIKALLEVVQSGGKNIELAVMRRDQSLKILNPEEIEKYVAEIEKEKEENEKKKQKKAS

What was measured:
Assay in all cases: log2 fold change, soluble protein after heating vs DMSO (PISA); higher = thermal stabilisation; K562 lysate, 10 uM; active = over 0.2 and 3.5 SD of the protein, either way, in both replicates (recomputed)
[1] = compound: Cc1cn(-c2cc(NC(=O)c3ccc(C)c(Nc4nccc(-c5cccnc5)n4)c3)cc(C(F)(F)F)c2)cn1 [nilotinib]
Summary of the method: (§1)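 K562 pellets were dounce-homogenised in PBS pH 7.4 with 1 mM MgCl2, and the crude extract at 1 mg/mL protein was treated with 10 μM compound for 30 min. Aliquots were heated for 3 min across 48°C-58°C, pooled, and brought to 0.5% NP-40 at 4°C; soluble protein was the supernatant after 21,000xg for 90 min. Soluble protein was quantified by TMTpro 16plex LC-MS/MS with channel sums equalised, and reported as log2 fold change in thermal stability against DMSO controls, with values from duplicates.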

[2] = compound: Cc1nc(Nc2n[nH]c3c2CN(C(=O)N[C@H](CN(C)C)c2ccccc2)C3(C)C)c2sccc2n1
Summary of the method: as §1

[3] = compound: Cc1nc(Nc2ncc(C(=O)Nc3c(C)cccc3Cl)s2)cc(N2CCN(CCO)CC2)n1 [dasatinib]
Summary of the method: as §1

[4] = compound: Cc1ncc(-c2ccnc(Nc3ccc(S(C)(=O)=O)cc3)n2)n1C(C)C
Summary of the method: as §1

[5] = compound: Cn1cc(-c2ccc3c(c2)CCN3C(=O)Cc2cccc(C(F)(F)F)c2)c2c(N)ncnc21
Summary of the method: as §1

[6] = compound: Cn1cc(CNCC2CCN(c3ncc(C(=O)NO)cn3)CC2)c2ccccc21 [quisinostat]
Summary of the method: as §1

[7] = compound: Cn1cncc1[C@@](N)(c1ccc(Cl)cc1)c1ccc2c(c1)c(-c1cccc(Cl)c1)cc(=O)n2C [tipifarnib]
Summary of the method: as §1

[8] = compound: NC(=O)Nc1cc(-c2cccc(F)c2)sc1C(=O)N[C@H]1CCCNC1
Summary of the method: as §1

[9] = compound: NC(=O)c1cnc(N[C@@H]2CCCC[C@@H]2N)nc1Nc1cccc(-n2nccn2)c1
Summary of the method: as §1

[10] = compound: NC1(c2ccc(-c3nc4ccn5c(=O)[nH]nc5c4cc3-c3ccccc3)cc2)CCC1
Summary of the method: as §1

Measured: log2 fold change

PUF60 (UniProt Q9UHX1)
inactive: [1] -0.006 | [2] -0.002 | [3] -0.025 | [4] 0.011 | [5] -0.017 | [6] 0.073 | [7] 0.016 | [8] -0.017 | [9] -0.001 | [10] 0.021

PRPSAP1 isoform 2 (UniProt Q14558)
inactive: [1] 0.057 | [2] -0.036 | [3] -0.009 | [4] -0.004 | [5] -0.01 | [6] 0.101 | [7] -0.006 | [8] 0.006 | [9] 0.011 | [10] 0.007

PSMG1 (UniProt O95456)
inactive: [1] -0.004 | [2] 0.019 | [3] -0.004 | [4] -0.021 | [5] 0.025 | [6] 0.045 | [7] -0.013 | [8] -0.016 | [9] 0.002 | [10] 0.019

PTMS (UniProt P20962)
inactive: [1] -0.023 | [2] 0.002 | [3] 0.005 | [4] 0.02 | [5] 0.02 | [6] -0.049 | [7] 0 | [8] 0.025 | [9] 0.033 | [10] -0.019

PSMC4 (UniProt P43686)
inactive: [1] 0.001 | [2] 0.001 | [3] -0.024 | [4] 0.008 | [5] 0.005 | [6] -0.012 | [7] 0.001 | [8] 0.02 | [9] 0.003 | [10] -0.009

PTRHD1 (UniProt Q6GMV3)
inactive: [1] 0.049 | [2] 0.028 | [3] 0.03 | [4] 0.176 | [5] 0.026 | [6] 0.01 | [7] -0.01 | [8] -0.09 | [9] -0.009 | [10] -0.027

PTP4A2 (UniProt Q12974)
inactive: [1] 0.126 | [2] -0.007 | [3] 0.098 | [4] 0.14 | [5] -0.017 | [6] 0.031 | [7] -0.01 | [8] -0.067 | [9] -0.021 | [10] 0.038

PTBP3 isoform 4 (UniProt O95758)
inactive: [1] 0.061 | [2] -0.046 | [3] -0.009 | [4] 0.002 | [5] 0.04 | [6] -0.041 | [7] 0.008 | [8] -0.019 | [9] -0.006 | [10] 0.047

PSMD8 (UniProt P48556)
inactive: [1] 0.003 | [2] -0.019 | [3] -0.061 | [4] -0.005 | [5] 0.017 | [6] 0.024 | [7] 0.008 | [8] -0.016 | [9] 0.009 | [10] 0.035

PRPS1 (UniProt B1ALA9)
inactive: [1] 0.071 | [2] -0.052 | [3] -0.034 | [4] 0.038 | [5] 0.014 | [6] 0.003 | [7] 0.057 | [8] -0.013 | [9] -0.014 | [10] -0.001

PSAT1 (UniProt Q9Y617)
inactive: [1] 0.016 | [2] 0.025 | [3] 0.025 | [4] 0.035 | [5] -0.023 | [6] 0.032 | [7] -0.009 | [8] -0.03 | [9] 0.018 | [10] 0.012

PUSL1 (UniProt Q8N0Z8)
inactive: [1] -0.007 | [2] -0.168 | [3] -0.046 | [4] 0.025 | [5] -0.16 | [6] -0.081 | [7] 0.081 | [8] 0.054 | [9] -0.005 | [10] -0.134

PSEN2 (UniProt P49810)
inactive: [1] -0.142 | [2] -0.058 | [3] -0.009 | [4] 0.052 | [5] -0.151 | [6] -0.051 | [7] 0.004 | [8] -0.087

PRPS2 isoform 2 (UniProt P11908)
inactive: [1] 0.02 | [2] -0.02 | [3] -0.033 | [4] -0.013 | [5] 0.013 | [6] 0.014 | [7] 0.004 | [8] -0.003 | [9] -0.008 | [10] 0.032

PSMB6 (UniProt P28072)
inactive: [1] 0.024 | [2] 0.019 | [3] 0.055 | [4] 0.005 | [5] 0.032 | [6] -0.029 | [7] 0.022 | [8] -0.016 | [9] 0.026 | [10] -0.029

PTK7 isoform 6 (UniProt Q13308)
inactive: [1] -0.006 | [2] -0.003 | [3] 0 | [4] 0.087 | [5] 0.007 | [6] 0.023 | [7] 0.012 | [8] 0.034 | [9] 0.034 | [10] -0.035

PSMG2 (UniProt Q969U7)
inactive: [1] 0.015 | [2] -0.055 | [3] -0.005 | [4] -0.008 | [5] -0.003 | [6] 0.004 | [7] 0.027 | [8] -0.014 | [9] -0.013 | [10] 0.018

PSMC1 (UniProt P62191)
inactive: [1] 0.023 | [2] 0.01 | [3] -0.017 | [4] -0.011 | [5] 0.016 | [6] -0.007 | [7] 0.008 | [8] 0.015 | [9] -0.008 | [10] -0.009

PSMC5 (UniProt P62195)
inactive: [1] -0.004 | [2] 0 | [3] -0.01 | [4] 0.001 | [5] 0.007 | [6] -0.02 | [7] 0.018 | [8] 0.014 | [9] -0.01 | [10] -0.006

PTK2 (UniProt Q05397)
inactive: [1] -0.032 | [2] 0.235 | [3] 0.083 | [4] 0.078 | [5] 0.18 | [6] -0.038 | [7] -0.046 | [8] 0.373 | [9] 0.081 | [10] 0.021

PVR (UniProt P15151)
inactive: [1] -0.052 | [2] 0.017 | [3] 0.187 | [4] 0.06 | [5] -0.182 | [6] 0.036 | [7] -0.033 | [8] 0.006 | [9] 0.036 | [10] 0.022

PTK2B (UniProt Q14289)
active: [8] 0.377
inactive: [1] 0.011 | [2] 0.109 | [3] 0.041 | [4] 0.026 | [5] 0.059 | [6] -0.122 | [7] -0.067 | [9] 0.072 | [10] -0.04

PSMA7 isoform 2 (UniProt O14818)
inactive: [1] -0.093 | [2] -0.013 | [3] -0.104 | [4] -0.272 | [5] 0.176 | [6] -0.545 | [7] -0.025 | [8] -0.323

Copied from above (2 entries):
PRPSAP1 isoform 2 (UniProt Q14558)
inactive: [1] 0.057 | [2] -0.036 | [3] -0.009 | [4] -0.004 | [5] -0.01 | [6] 0.101 | [7] -0.006 | [8] 0.006 | [9] 0.011 | [10] 0.007

PSMG1 (UniProt O95456)
inactive: [1] -0.004 | [2] 0.019 | [3] -0.004 | [4] -0.021 | [5] 0.025 | [6] 0.045 | [7] -0.013 | [8] -0.016 | [9] 0.002 | [10] 0.019

(listing goes on)

PRTFDC1 (UniProt Q9NRG1)
inactive: [1] 0.009 | [2] 0.014 | [3] 0.004 | [4] -0.018 | [5] -0.007 | [6] 0.031 | [7] 0.012 | [8] -0.013 | [9] -0.012 | [10] 0.041

PSD4 (UniProt Q8NDX1)
inactive: [1] 0.027 | [2] 0.013 | [3] -0.036 | [4] -0.004 | [5] 0 | [6] -0.072 | [7] 0.014 | [8] 0.002 | [9] 0.004 | [10] -0.002

PTBP2 isoform 2 (UniProt Q9UKA9)
inactive: [1] 0.013 | [2] -0.223 | [3] 0.157 | [4] -0.007 | [5] 0.121 | [6] 0.038 | [7] 0 | [8] -0.042 | [9] -0.071 | [10] 0

PRUNE1 (UniProt Q86TP1)
inactive: [1] 0.009 | [2] -0.031 | [3] 0.018 | [4] 0.02 | [5] 0.012 | [6] -0.034 | [7] -0.009 | [8] 0.016 | [9] -0.005 | [10] -0.037

PTPN11 isoform 1 (UniProt Q06124)
inactive: [1] -0.052 | [2] 0.012 | [3] 0.026 | [4] -0.008 | [5] 0.02 | [6] 0.045 | [7] 0.024 | [8] -0.021 | [9] 0.004 | [10] 0.017
